The record followed here is publication PMC7864077.

Sequences of proteins named here, by UniProt entry; tags and fusion partners are left off.
UniProt P17931: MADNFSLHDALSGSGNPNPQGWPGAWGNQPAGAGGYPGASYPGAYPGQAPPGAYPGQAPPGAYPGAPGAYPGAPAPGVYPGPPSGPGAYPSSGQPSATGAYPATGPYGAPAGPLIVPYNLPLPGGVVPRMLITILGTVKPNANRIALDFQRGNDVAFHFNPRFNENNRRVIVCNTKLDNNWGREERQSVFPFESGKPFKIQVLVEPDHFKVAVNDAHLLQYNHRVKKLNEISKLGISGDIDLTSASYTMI

These are yes or no findings as the source states them, for the method shown. Some binding calls cover weakened binding; strength is not graded here.

Experiment [1] deals with GST-Gal-3 (UniProt P17931). Nature of the experiment: pull-down; as a1, with 0.1 M lactose added to the system for competitive inhibition; both purified.
The target in experiment [2] is GST-Gal-3 (UniProt P17931). In words: pull-down; GST-Gal-3 held on GSH magnetic-agarose beads with purified CD133 in lysis buffer (150 mM NaCl, 100 mM Tris pH 8.0, 0.5% Triton X-100, 1 mM EDTA); Western blotting; both purified.

B1: CD133 (receptor, UniProt O43490 20-865)
chain: GGQPSSTDAPKAWNYELPATNYETQDSHKAGPIGILFELVHIFLYVVQPRDFPEDTLRKFLQKAYESKIDYDKPETVILGLKIVYYEAGIILCCVLGLLFIILMPLVGYFFCMCRCCNKCGGEMHQRQKENGPFLRKCFAISLLVICIIISIGIFYGFVANHQVRTRIKRSRKLADSNFKDLRTLLNETPEQIKYILAQYNTTKDKAFTDLNSINSVLGGGILDRLRPNIIPVLDEIKSMATAIKETKEALENMNSTLKSLHQQSTQLSSSLTSVKTSLRSSLNDPLCLVHPSSETCNSIRLSLSQLNSNPELRQLPPVDAELDNVNNVLRTDLDGLVQQGYQSLNDIPDRVQRQTTTVVAGIKRVLNSIGSDIDNVTQRLPIQDILSAFSVYVNNTESYIHRNLPTLEEYDSYWWLGGLVICSLLTLIVIFYYLGLLCGVCGYDRHATPTTRGCVSNTGGVFLMVGVGLSFLFCWILMIIVVLTFVFGANVEKLICEPYTSKELFRVLDTPYLLNEDWEYYLSGKLFNKSKMKLTFEQVYSDCKKNRGTYGTLHLQNSFNISEHLNINEHTGSISSELESLKVNLNIFLLGAAGRKNLQDFAACGIDRMNYDSYLAQTGKSPAGVNLLSFAYDLEAKANSLPPGNLRNSLKRDAQTIKTIHQQRVLPIEQSLSTLYQSVKILQRTGNGLLERVTRILASLDFAQNFITNNTSSVIIEETKKYGRTIIGYFEHYLQWIEFSISEKVASCKPVATALDTAVDVFLCSYIIDPLNLFWFGIGKATVFLLPALIFAVKLAKYYRRMDSEDVYDDVETIPMKNMENGNNGYHKDHVYGIHNPVMTSPSQH
Take B1: the figures for the binding entry in experiment [1] and in experiment [2] were “no binding (condition: with 0.1 M lactose)” and “binds”, respectively.
